Data published in US20190015423A1, “REGULATION OF GENE EXPRESSION BY MODULATING PRIMARY CILIA LENGTH” (THE TRUSTEES OF COLUMBIA UNIVERSITY IN THE CITY OF NEW YORK, priority 2016, published 2019).

Test system: MLO-Y4 osteocytes
Assay: High-throughput drug screening of primary cilia length and incidence
Assay type: cell-based
Conditions: 10 μM, 16 hours, triplicate; normalized to vehicle control; standard deviation away from the population average
Protocol: MLO-Y4 osteocytes were maintained on collagen I-coated dishes in MEMα (Life_Technologies) supplemented with 5% fetal bovine serum (FBS), 5% calf serum (CS), and 1% penicillin/streptomycin (P/S) at 37° C. and 5% CO2. Osteocytes were then seeded onto 384-well collagen-coated plates for 72 hours before fixation. […] These libraries include Tocris, Sigma LOPAC, Selleck Chemical, Prestwick, and Spectrum commercially available compound libraries. All cell seeding and plate handling was performed with the Perkin Elmer cell:explorer workstation.
Cells were fixed in 4% paraformaldehyde and permeabilized with 0.1% Triton-X 100 (Sigma). 10% goat serum (vendor) was used for blocking. Cilia were stained using a monoclonal antibody against acetylated α-tubulin (1:20) from a C3B9 hybridoma cell line, and visualized with A F488 (1:1000, ThermoFisher). Nuclei were visualized with Hoechst. Cells were imaged using a GE INCell 2000 high-throughput imager at 40× magnification. 4 fields of view were taken per well.
Each pair of nuclei and cilia images was first analyzed individually, then the entire population was examined to evaluate each compound's effect on cilia length and incidence. […] The augmentation of the algorithm incorporates thresholding for noise removal based on signal intensity and object size, nuclei dilation to exclude non-cellular artifacts, as well as skeletonization of cilia to quantify length. […]

For O=C1NC(=O)c2c1c(-c1ccccc1)cc1[nH]c3ccc(O)cc3c21 [PD-407824], the “Average Length SD Away” value was 1.51 SD.

In the case of COC(=O)[C@H](CCCN=C(N)N)NS(=O)(=O)c1ccc(C)cc1 [TAME], the “Average Incidence SD Away” value is reported as 2.325 SD.
